This note sets out measurements from publication PMC10770141.

The chains behind the UniProt entries cited, without tags or fusion partners. Where a name states a change or a piece, a line headed by the entry shows the natural chain unless it says otherwise. A line that says so, or that is headed by a name, gives the form on record, which may keep a tag or linker. Residues count along the entry.
UniProt Q13873, residues 27-1038: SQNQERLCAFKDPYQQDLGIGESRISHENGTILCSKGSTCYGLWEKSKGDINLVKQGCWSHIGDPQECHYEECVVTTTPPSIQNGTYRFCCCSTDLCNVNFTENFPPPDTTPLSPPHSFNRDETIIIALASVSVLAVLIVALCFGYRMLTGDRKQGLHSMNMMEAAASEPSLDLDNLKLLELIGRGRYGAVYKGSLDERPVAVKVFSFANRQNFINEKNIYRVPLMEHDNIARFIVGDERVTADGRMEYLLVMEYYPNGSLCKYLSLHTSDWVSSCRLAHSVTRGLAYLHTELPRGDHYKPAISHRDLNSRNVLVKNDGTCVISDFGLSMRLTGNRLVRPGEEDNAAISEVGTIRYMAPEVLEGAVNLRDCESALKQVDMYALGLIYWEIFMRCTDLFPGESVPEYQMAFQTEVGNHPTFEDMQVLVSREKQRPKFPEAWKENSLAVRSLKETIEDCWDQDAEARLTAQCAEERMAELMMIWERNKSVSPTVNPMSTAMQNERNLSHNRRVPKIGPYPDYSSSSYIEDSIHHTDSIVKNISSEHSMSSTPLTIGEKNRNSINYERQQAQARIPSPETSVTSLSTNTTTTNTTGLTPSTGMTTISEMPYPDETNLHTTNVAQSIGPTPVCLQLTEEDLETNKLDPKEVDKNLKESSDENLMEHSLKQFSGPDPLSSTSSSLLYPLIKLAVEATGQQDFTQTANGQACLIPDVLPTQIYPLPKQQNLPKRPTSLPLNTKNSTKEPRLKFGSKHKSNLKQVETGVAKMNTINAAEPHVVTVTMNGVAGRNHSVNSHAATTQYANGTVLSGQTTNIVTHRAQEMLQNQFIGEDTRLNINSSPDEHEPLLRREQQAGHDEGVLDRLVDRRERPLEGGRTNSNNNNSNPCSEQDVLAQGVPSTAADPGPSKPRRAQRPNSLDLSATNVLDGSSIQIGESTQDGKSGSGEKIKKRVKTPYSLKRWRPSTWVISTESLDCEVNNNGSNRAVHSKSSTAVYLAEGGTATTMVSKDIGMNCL
UniProt Q03135: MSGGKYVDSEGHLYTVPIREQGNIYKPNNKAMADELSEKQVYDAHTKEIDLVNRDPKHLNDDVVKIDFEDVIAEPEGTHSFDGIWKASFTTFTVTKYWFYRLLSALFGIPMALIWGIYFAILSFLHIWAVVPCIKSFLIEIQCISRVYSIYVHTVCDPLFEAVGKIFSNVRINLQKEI
GST-CAV1(61-101): residues 61-101 of Q03135
T7-tagged human Caveolin-1 ΔCSD (pcDNA3.1-T7-hCAV1 ΔCSD, 81-101 deletion) (Q03135, form named): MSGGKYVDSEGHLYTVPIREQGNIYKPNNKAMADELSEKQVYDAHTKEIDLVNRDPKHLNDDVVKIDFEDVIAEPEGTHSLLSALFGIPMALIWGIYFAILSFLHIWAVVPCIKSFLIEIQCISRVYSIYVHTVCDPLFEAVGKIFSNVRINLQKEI

The target of assay [1] is Myc-tagged human BMPR2 (pcDNA3-hBMPR2-myc) (human) (UniProt Q13873). In words: co-IP; 293FT cells transfected with hBMPR2-myc and/or T7-hCAV1 and/or T7-hCAV1ΔCSD; lysates precipitated with anti-T7 or anti-myc antibodies.
The target is the same in assay [2]. In words: co-IP; 293FT cells transfected with T7-hCAV1 and/or hBMPR2-myc and/or FLAG-hCavin-1; lysates precipitated with anti-myc antibody on magnetic beads, 4 °C overnight.
In assay [3] the target is GST-CAV1(61-101) (UniProt Q03135). In words: pull-down; GST-CAV1 fragments on glutathione-Sepharose beads, incubated with lysates of 293FT cells transfected with FLAG-Cavin-1 or BMPR2-myc, 4 °C, 2 h; blot with anti-FLAG or anti-myc; only the target purified.
Assay [4] shares this target. In words: pull-down; GST-CAV1(61-101) on glutathione-Sepharose beads, incubated with lysates of 293FT cells transfected with BMPR2-myc and/or FLAG-Cavin-1 (co-expression); blot with anti-myc or anti-FLAG; only the target purified.
The target is the same in assay [5]. The experiment in a line: pull-down; GST or GST-CAV1(61-101) on glutathione-Sepharose beads, incubated with lysate of 293FT cells transfected with BMPR2-myc, with or without recombinant Cavin-1 protein; blot with anti-myc; only the target purified.
For assay [6], the target named is Caveolin-1 (CAV1), endogenous in human pulmonary artery endothelial cells (human (endogenous in hPAECs)) (UniProt Q03135). The experiment in a line: proximity ligation; Duolink II kit for CAV1 and BMPR2 in hPAECs transfected with pcDNA3.1+ or pFLAG-CMV-4-hCavin-1.
Assay [7] has the same target. The experiment in a line: proximity ligation; Duolink II kit in hPAECs with anti-CAV1 and anti-Cavin-1 or anti-BMPR2 antibodies; normoxia or hypoxia for 2 h; PLA signals counted in each cell.

Results are given in words; binding and its absence hold for the method and conditions named. Binding seen in cells or lysates may run through a third protein. Some entries that bind do so weakly or less than the wild type.

As for “T7-tagged human Caveolin-1 ΔCSD (pcDNA3.1-T7-hCAV1 ΔCSD, 81-101 deletion) (from UniProt Q03135 1-178)”, in assay [1], the binding entry was “no binding”.

On to “T7-tagged human Caveolin-1 (pcDNA3.1-T7-hCAV1) (from UniProt Q03135 1-178)”, for which the binding entry in assay [1] and in assay [2] was “binds” in each case.

“Myc-tagged human BMPR2 (pcDNA3-hBMPR2-myc) (from UniProt Q13873 27-1038) (receptor)”: the binding entry in assay [3], in assay [4] and in assay [5] was “binds” in each case.

With “Bone morphogenetic protein type 2 receptor (BMPR2), endogenous in human pulmonary artery endothelial cells (from UniProt Q13873 27-1038)”, the binding result in assay [6] and in assay [7] was “binds” in each case.
